Reference: US20160136109A1, “COMPOSITIONS FOR TISSUE STABILIZATION” (Vatrix Medical, Inc., priority 2008, published 2016)

System: porcine suprarenal thoracic aorta
Assay: Ring opening angle of treated aorta rings (Example 6)
Conditions: 25 min at 37° C.

Structure (SMILES): O=CCCCC=O [Glut, Glutaraldehyde]
- sequence of the opening angles (0.02% Glut): Fresh (control)>lo Glut>PGG>PGG+lo Glut>hi Glut>PGG+hi Glut
- sequence of the opening angles (0.20% Glut): Fresh (control)>lo Glut>PGG>PGG+lo Glut>hi Glut>PGG+hi Glut
